Library screen at single concentrations

Data taken from ChEMBL document CHEMBL3988442, “University of Dundee, Small-Polar-MMV Screening Library” (2021).

Results are given as percent effect.
The controls that fix the scale are not given in the record; negative values are as filed.
The compounds are a random part of those screened.
Two or more numbers in one place are separate tests of the same structure; such repeats can differ widely.

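Growth of Mycobacterium tuberculosis over 4 days (cholesterol / DPPC medium with tyloxapol); the read-out is not stated. Concentration: 50 µM. Higher reads as more growth inhibition (inferred: compounds with an IC50 in retests scored well above the rest). About 69,000 compounds were tested under these conditions; 0.54% (about 370) showed 50% or more at least once.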

SMILES: CCCN(Cc1cccnc1)C(=O)C1CCS(=O)(=O)CC1
percent effect: -15.14 & -3.928

SMILES: COCC1CN(C(=O)COc2ccc(C)cc2)Cc2cn(C)nc21.O=C(O)C(F)(F)F (configuration not stated)
percent effect: 0.7802 & -4.796

SMILES: CC(=O)c1cc(C(=O)NC2(c3ccccc3)CCC2)n(C)c1
percent effect: -10.21

SMILES: CC1(C)CN(C(=O)c2ccc3nncn3c2)CCS1
percent effect: 8.871

SMILES: Cc1cc(C)nc(N2CCC(c3ccnc(N(C)C)n3)CC2)n1
percent effect: 7.874

SMILES: O=C(NCC1CC1)C1=NOC2(CCN(S(=O)(=O)Cc3ccccc3)C2)C1 (configuration not stated)
percent effect: -10.73

SMILES: O=C(O)C(F)(F)F.[H][C@@]12CN(Cc3ccoc3)C[C@H](C(=O)N3CCCCO3)[C@]1([H])CCO2
percent effect: 8.347

SMILES: Cc1ccc(CN(C)C(=O)C(C)n2ccnc2C(C)C)o1 (configuration not stated)
percent effect: 5.836

SMILES: COc1cccc(CN(C)C(=O)CN2CC(n3nc(C)cc3C)C2)c1
percent effect: -7.393

SMILES: Cc1nnc(CN(C)C2CCN(c3cccc(-c4cscn4)c3)CC2)o1
percent effect: 0.1329

SMILES: Cl.Cn1nc(C2CCN(C(=O)Cc3ccsc3)CC2)c2cccnc21
percent effect: 20.1

SMILES: Cc1nn(C)c(C)c1C1COCCN1C(=O)c1ccc(Cl)o1 (configuration not stated)
percent effect: -30.79

SMILES: CSCC(=O)N1CCC2(CC1)c1ccccc1CC2O (configuration not stated)
percent effect: -17.06

SMILES: O=C(O)C(F)(F)F.O=C(O)C(F)(F)F.[H][C@@]12CCCO[C@]1([H])[C@H](N1CCN(C)CC1)CN2C(=O)c1occc1C
percent effect: -17.7

SMILES: [H][C@]12CC(COCc3cccnc3)C[C@]1([H])N(Cc1cccnc1)CCO2 (some centres not stated)
percent effect: -3.209

SMILES: CC(C#N)(NC(=O)Cn1cc(I)cn1)C1CC1 (configuration not stated)
percent effect: 4.053 & -8.269

SMILES: CC(C)OCCC(=O)Nc1c(-c2ccc(F)cc2)ncn1C
percent effect: -16.04

SMILES: CN(Cc1nccn1CC(F)(F)F)C(=O)c1cccc(C#N)c1
percent effect: -5.214

SMILES: Cc1cnc(C(=O)N2CCC3(CCN3Cc3ccc(F)cc3)C2)cn1.O=C(O)C(F)(F)F (configuration not stated)
percent effect: -11.44

SMILES: CCS(=O)(=O)c1ccc(NCc2csc(C(C)C)n2)cc1
percent effect: -23.84

SMILES: Cc1nc(N2CCN(C)CC2)ncc1C(=O)N1CCCCCC1
percent effect: 13.83

SMILES: O=C1CN(c2ccc(CNc3cncc(-n4cccn4)n3)cc2)CCN1
percent effect: -3.094

SMILES: CCC(CO)N(Cc1ccco1)C(=O)c1sccc1NC(C)=O (configuration not stated)
percent effect: -2.734

SMILES: [H][C@@]12C[C@@H](OCc3ccccc3)C[C@]1([H])CN(C(=O)C1CCOCC1)C2
percent effect: 5.96

SMILES: NCCO[C@H]1C[C@@H](O)C12CCN(Cc1c(F)cccc1F)CC2
percent effect: 22.53

SMILES: CC(C)N1CCc2nnc(COc3cncnc3)n2CC1.O=C(O)C(F)(F)F
percent effect: -7.444

SMILES: OC(COCc1ccc(Cl)cc1)CN1CC(n2cccn2)C1 (configuration not stated)
percent effect: -17.67

SMILES: Cl.Cn1ccnc1N1CCN(C(=O)Cc2ccccc2)CC1
percent effect: -11.39

SMILES: Cn1c(C2CCCN2C(=O)CN2CSCC2=O)nc2ccccc21 (configuration not stated)
percent effect: 2.864

SMILES: Cc1nc(C2CCCN2C(=O)CCc2ccc(F)cc2)ncc1C(N)=O (configuration not stated)
percent effect: -10.31

SMILES: CC(C)c1ncc2c(n1)CN(CC(=O)Nc1ccc(Cl)cn1)CC2
percent effect: 28.71

SMILES: O=C(CN1CCOC(c2ccc(Cl)c(Cl)c2)C1)NCc1ccco1 (configuration not stated)
percent effect: -8.314

SMILES: Cc1nn(C)c2nc(NC3CCNCC3)sc12
percent effect: 5.304

SMILES: CC(Oc1ccc(F)cc1)C(=O)N(CC(N)=O)C1CCCC1 (configuration not stated)
percent effect: 5.569 & -11.72

SMILES: CC(CNC(=O)c1cc(-n2cccn2)ccn1)Cn1ccnc1 (configuration not stated)
percent effect: -19.49

SMILES: CCc1ccc(C(C)NC(=O)c2ccc(CS(C)(=O)=O)o2)cc1 (configuration not stated)
percent effect: 25.08

SMILES: O=C(C[S+]([O-])Cc1cccc(C(F)(F)F)c1)NC1CCCC1 (configuration not stated)
percent effect: 14.23

SMILES: CN1C(=O)CCCC12CCCN(C(=O)c1ccc3c(c1)OCO3)C2 (configuration not stated)
percent effect: -0.6021 & -15.7

SMILES: CCc1ccc(CN2CCNC(C(=O)N3CCN(C)CC3)C2)nc1 (configuration not stated)
percent effect: 4.17 & -2.725

SMILES: NCCc1nc(N(Cc2cncs2)C2CC2)c2ccccc2n1
percent effect: -24.04

SMILES: O=C(CCn1cncn1)NCCOc1cccc(Cl)c1
percent effect: -27.7

SMILES: COC(=O)c1cc(NC(=O)NCC2CCS(=O)(=O)C2)ccc1Cl (configuration not stated)
percent effect: -23.96

SMILES: CN1CCC2(COCc3cnc(N4CCOCC4)nc32)C1.O=C(O)C(F)(F)F (configuration not stated)
percent effect: 12.44

SMILES: Cc1nnc(C(C)N2CCc3[nH]c4ccccc4c3C2)o1 (configuration not stated)
percent effect: 1.209

SMILES: O=C1COc2ccc(S(=O)(=O)NCCC3=CCCCC3)cc2N1
percent effect: -1.085

SMILES: Cc1cnn(CCNCC(=O)Nc2ccc(Cl)cn2)c1
percent effect: 6.872

SMILES: COCC(C)(C)NC(=O)CC(c1ccccc1)C(F)(F)F (configuration not stated)
percent effect: -0.4291

SMILES: CC(C)c1nn(C)c(N(C)C)c1CNCc1ccc(N(C)C)nc1
percent effect: 13.24

SMILES: CN1CC(=O)N(c2cccc(F)c2)CC12CCN(Cc1nccs1)C2.O=C(O)C(F)(F)F.O=C(O)C(F)(F)F (configuration not stated)
percent effect: 10.76 & -1.748

SMILES: Cc1ccc2c(c1)c(CNC(=O)C1CCN(CC(N)=O)CC1)nn2C
percent effect: -4.575 & 8.513

SMILES: Cc1cnn(CC(C)NCc2csc(-c3ccsc3)n2)c1 (configuration not stated)
percent effect: 25.16

SMILES: CCCc1n[nH]c(C2CN(C(=O)c3ccco3)CCO2)n1 (configuration not stated)
percent effect: -11.41

SMILES: N[C@@H]1CCN(Cc2ccccc2CS(=O)(=O)c2ccccc2)C[C@H]1O
percent effect: 12.23

SMILES: O=C(c1c[nH]c2ncccc12)N(Cc1ccco1)C1CCCC1
percent effect: -15.97

SMILES: CCSCCC(=O)NC1CCN(C(C)c2ccccc2)CC1 (configuration not stated)
percent effect: -16.26

SMILES: Cc1ncc(C(=O)N2CCOC(C(=O)N3CCCCC3)C2)c(C)n1 (configuration not stated)
percent effect: -6.401 & -5.214

SMILES: FC1(F)CCNCC12CCN(c1cccnc1)C2.O=C(O)C(F)(F)F.O=C(O)C(F)(F)F (configuration not stated)
percent effect: -26.33

The first 6 entries again:

* CCCN(Cc1cccnc1)C(=O)C1CCS(=O)(=O)CC1 : -15.14% & -3.928%
* COCC1CN(C(=O)COc2ccc(C)cc2)Cc2cn(C)nc21.O=C(O)C(F)(F)F (configuration not stated) : 0.7802% & -4.796%
* CC(=O)c1cc(C(=O)NC2(c3ccccc3)CCC2)n(C)c1 : -10.21%
* CC1(C)CN(C(=O)c2ccc3nncn3c2)CCS1 : 8.871%
* Cc1cc(C)nc(N2CCC(c3ccnc(N(C)C)n3)CC2)n1 : 7.874%
* O=C(NCC1CC1)C1=NOC2(CCN(S(=O)(=O)Cc3ccccc3)C2)C1 (configuration not stated) : -10.73%